The target of assay [1] is dopamine D2 receptor (rat (endogenous in Sprague-Dawley rat striatum)) (UniProt P61169). Kind of assay: proximity ligation; in situ PLA on coronal slices from rat brain (25 um) or monkey (30 um); anti-D1R PLUS and anti-D2R MINUS probes (Duolink); confocal microscopy; male and female animals.
Assay [2] has the same target. Kind of assay: co-IP; protein homogenates (250-300 ug) from rat NAc or CPu of male and female rats, anti-D2R antibody at 4 °C overnight, protein G/A, 3 washes with PBS-Tween; Western blot with anti-D1R antibody. (In general: In western blotting, separated proteins are transferred to a membrane and probed.)

Sequences of proteins named here, by UniProt entry; tags and fusion partners are left off.
UniProt P61169: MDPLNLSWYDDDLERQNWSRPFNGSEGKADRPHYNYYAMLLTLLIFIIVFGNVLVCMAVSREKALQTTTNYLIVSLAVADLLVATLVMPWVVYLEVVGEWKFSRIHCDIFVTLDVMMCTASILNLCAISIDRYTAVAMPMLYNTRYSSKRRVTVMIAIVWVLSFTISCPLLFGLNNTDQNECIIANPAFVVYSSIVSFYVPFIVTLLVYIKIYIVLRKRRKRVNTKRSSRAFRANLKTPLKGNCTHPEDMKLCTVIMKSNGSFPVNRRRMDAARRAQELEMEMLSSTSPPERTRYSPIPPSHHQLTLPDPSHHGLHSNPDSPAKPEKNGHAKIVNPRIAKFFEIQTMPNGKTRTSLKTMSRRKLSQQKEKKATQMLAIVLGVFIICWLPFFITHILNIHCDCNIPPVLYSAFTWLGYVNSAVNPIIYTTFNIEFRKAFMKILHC
UniProt P18901: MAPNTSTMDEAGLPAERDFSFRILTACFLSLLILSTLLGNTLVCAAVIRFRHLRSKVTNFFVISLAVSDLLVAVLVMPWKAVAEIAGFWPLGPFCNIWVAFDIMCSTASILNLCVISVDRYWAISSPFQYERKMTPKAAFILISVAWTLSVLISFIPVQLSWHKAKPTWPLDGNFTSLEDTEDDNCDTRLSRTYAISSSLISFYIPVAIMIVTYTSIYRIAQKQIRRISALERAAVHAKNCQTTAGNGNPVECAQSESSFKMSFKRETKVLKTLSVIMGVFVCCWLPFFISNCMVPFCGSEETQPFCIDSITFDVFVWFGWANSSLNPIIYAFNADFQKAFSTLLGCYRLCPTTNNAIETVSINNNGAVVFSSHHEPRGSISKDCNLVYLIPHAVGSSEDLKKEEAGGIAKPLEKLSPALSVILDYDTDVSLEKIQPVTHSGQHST

Here are results for one substance from article PMC7035642.

No constants are given. Whether binding was seen depends on the method and setting. In cells and extracts the contact can be indirect. Some binding calls cover weakened binding; strength is not graded here.

As for “dopamine D1 receptor (from UniProt P18901 1-446)”, the binding entry in assay [1] and in assay [2] was “binds” each time.
